Results from publication PMC9122892.
No constants are given. Whether binding was seen depends on the method and setting. Binding seen in cells or lysates may run through a third protein. Some results given as binding are weak or reduced against the parent protein; the word gives no strength.

Biological target: T1, Ifi204 (mouse (endogenous in mouse tissue)) (UniProt P0DOV2)
T1 sequence: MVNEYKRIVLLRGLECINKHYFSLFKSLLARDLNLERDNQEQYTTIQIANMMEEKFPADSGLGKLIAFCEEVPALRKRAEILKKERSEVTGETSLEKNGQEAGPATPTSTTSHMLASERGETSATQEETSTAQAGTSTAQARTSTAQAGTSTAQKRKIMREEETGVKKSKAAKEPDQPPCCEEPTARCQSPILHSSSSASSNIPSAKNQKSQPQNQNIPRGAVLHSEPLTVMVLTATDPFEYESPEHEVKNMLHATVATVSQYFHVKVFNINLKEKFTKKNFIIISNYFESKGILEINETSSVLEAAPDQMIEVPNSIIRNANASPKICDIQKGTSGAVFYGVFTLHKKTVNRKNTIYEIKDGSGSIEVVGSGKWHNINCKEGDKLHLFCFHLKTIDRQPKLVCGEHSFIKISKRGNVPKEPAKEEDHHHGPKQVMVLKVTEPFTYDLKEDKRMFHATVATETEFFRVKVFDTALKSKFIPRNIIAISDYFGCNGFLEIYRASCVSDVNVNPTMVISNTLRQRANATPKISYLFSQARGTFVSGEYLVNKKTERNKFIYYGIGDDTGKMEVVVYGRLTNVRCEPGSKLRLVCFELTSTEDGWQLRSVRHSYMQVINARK
Assay: proximity ligation; PLA (Duolink) on deparaffinized allograft tumor tissue sections from HFD-fed mice; anti-Ifi204 with anti-HIF1α or anti-PRMT2

- binding: binds
B1: PRMT2 (mouse) (protein, UniProt Q9R144 1-448)
chain: MEAPGEGPCSESQVIPVLEEDPVDYGCEMQLLQDGAQLQLQLQPEEFVAIADYTATDETQLSFLRGEKILILRQTTADWWWGERAGCCGYIPANHLGKQLEEYDPEDTWQDEEYFDSYGTLKLHLEMLADQPRTTKYHSVILQNKESLKDKVILDVGCGTGIISLFCAHHARPKAVYAVEASDMAQHTSQLVLQNGFADTITVFQQKVEDVVLPEKVDVLVSEWMGTCLLFEFMIESILYARDTWLKGDGIIWPTTAALHLVPCSAEKDYHSKVLFWDNAYEFNLSALKSLAIKEFFSRPKSNHILKPEDCLSEPCTILQLDMRTVQVPDLETMRGELRFDIQKAGTLHGFTAWFSVYFQSLEEGQPQQVVSTGPLHPTTHWKQTLFMMDDPVPVHTGDVVHGFCCVTKKSGMEKAHVCLSELGCHVRTRSHVSTELETGSFRSGGDS
